This experiment is described as follows: qHTS Assay to Find Inhibitors of Chronic Active B-Cell Receptor Signaling. Conditions: ABC-DLBCL IkBa-CBG/CBR reporter, luminescence ratio (green luciferase fused to IkBa over red control in TMD8 lymphoma cells), 4 h. Put shortly: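 Concentration-response series (up to 46 uM) were applied to TMD8 dual-reporter cells for 4 h at 37C with doxycycline. Green/red ratio, after filter-overlap correction, defined %Activity; red signal alone was normalised to basal cells and zero luminescence.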
Background: Quantitative high-throughput screening tests each substance at several concentrations.

The mark [1] stands for this setting: measured here: CBR red luminescence, cell number.
[2] abbreviates: measured here: IkBa-CBG green luminescence.

Some of the results follow. The main result of the screen is listed elsewhere. These columns were measured beside it and carry no call. Compounds called inactive in the main read-out are mostly missing here. Potencies come from curve fits of mixed quality, noted in brackets.

The term AC50 denotes the concentration at which the activity in the assay is half-maximal.

Consider `O=C(N/N=C/c1ccc(Cl)c(Cl)c1)c1ccc2nc[nH]c2c1`, for which the concentration at half-maximal activity (AC50) under setting [1] is 2 µM [falling, full curve, poor fit].

With `COc1ccc(-c2nc(NC(=O)Cn3ccc(C(F)(F)F)n3)sc2C)cc1`, the concentration at half-maximal activity (AC50) under setting [1] was 29.1 µM [falling, single point].

On to `CC(C)S(=O)(=O)C1=NSC2=NC(=O)/C(=C\c3ccc(-c4ccccc4)o3)C(=N)N21`, for which the AC50 was 29.1 µM [falling, single point] under setting [1] and 8.2 µM [rising, partial curve, poor fit] under setting [2].

As to `C=CCSc1nsc(NC(=O)Nc2ccc(F)cc2)n1`, the AC50 under setting [1] is 1.26 µM [falling, full curve].

As for `CCC(CO)Oc1cc(NC(=O)c2cccc(OC)c2)c2ncn(C(C)C)c2c1` (configuration not stated), under setting [1], the AC50 is 29.1 µM [falling, single point].

Take `C#CCOC(=O)C(NC(=O)c1ccccc1)=C(C)C`: the AC50 under setting [1] was 0.13 µM [rising, full curve, poor fit].

Take `COc1ccccc1OCCCC(=O)Nc1nccs1`: the concentration at half-maximal activity (AC50) under setting [1] was 12.6 µM [falling, partial curve].

With `COc1cccc(NC(=O)CSc2nnc(Cc3cccn3C)n2-c2ccc(F)cc2)c1`, the concentration at half-maximal activity (AC50) under setting [1] was 29.1 µM [falling, partial curve, poor fit].

For the molecule `Cc1cnc(NS(=O)(=O)c2ccc(Cl)cc2)c(Br)c1`, the half-maximal activity concentration (AC50) under setting [1] is 35.5 µM [falling, single point].

Take `COc1ccc(Nc2cc(C(=O)NCCCN3CCN(C)CC3)c3ccccc3n2)c(OC)c1`: the AC50 under setting [1] was 5.62 µM [falling, partial curve].

As for `COc1ccc(C(=O)N2CCN(S(=O)(=O)c3ccc(Cl)cc3)CC2)cc1OC`, the half-maximal activity concentration (AC50) under setting [1] is 0.00651 µM [falling, full curve, poor fit].

In the case of `CC(C)(C)SCCNC(=O)/C=C/c1ccc(F)cc1`, the AC50 under setting [1] was 4.61 µM [rising, partial curve, poor fit].

Take `COc1cc(N)c(Cl)cc1C(=O)OCC(=O)c1ccc2c(c1)NC(=O)CO2`: the AC50 under setting [1] was 16.4 µM [falling, partial curve].

As to `O=C(O)c1ccc(COc2ccc3ccccc3c2/C=C2/NC(=O)N(Cc3ccc(F)cc3)C2=O)cc1`, the AC50 under setting [1] was 2.82 µM [falling, partial curve, poor fit].

Consider `COc1ccc(OC)c(Nc2nc(-c3ccc(O)c(O)c3)cs2)c1`, for which the half-maximal activity concentration (AC50) under setting [1] was 32.6 µM [falling, single point].

For `CC(C)C[C@H](NC(=O)c1nc[nH]c1C(=O)NC1CCN(C(=O)OC(C)(C)C)CC1)C(=O)OCc1ccccc1`, the AC50 under setting [1] was 14.1 µM [falling, single point].

As for `CCOC(=O)CN/C=C(\C#N)c1ccc(F)cc1`, the AC50 under setting [1] was 22.4 µM [rising, single point].

For the molecule `CC(C)Cn1c(=O)c2c(nc3n2CCCN3Cc2ccccc2)n(C)c1=O`, the half-maximal activity concentration (AC50) under setting [1] was 11.2 µM [falling, single point].

In the case of `COc1ccc(Cl)cc1NC(=O)CN1CCC(n2nnc3ccccc32)CC1`, the AC50 under setting [1] is 14.6 µM [rising, partial curve, poor fit].

For `O=[N+]([O-])c1ccc2nc(NS(=O)(=O)c3ccc(F)cc3)sc2c1`, the half-maximal activity concentration (AC50) under setting [1] is 2.82 µM [rising, partial curve, poor fit].

Regarding `S=C(NCc1ccccc1)NCc1ccc(Cl)cc1`, the AC50 under setting [1] is 0.891 µM [rising, full curve, poor fit].

Turning to `COc1ccc(NC(=O)Cn2nnc(C(=O)NCc3ccccc3OC)c2N)cc1Cl`, the AC50 under setting [1] was 14.6 µM [rising, partial curve, poor fit].

Regarding `COc1cccc(NC(=O)c2ccc3c(c2)OCCO3)c1`, the AC50 under setting [1] was 3.98 µM [falling, partial curve, poor fit].

`CCOC(=O)c1c(NC(=O)C[n+]2ccc(Cc3ccccc3)cc2)sc(C)c1C`: under setting [1], the concentration at half-maximal activity (AC50) was 35.5 µM [falling, single point].

Turning to `NC(=O)N/N=C/c1ccc(OCc2cccc(Cl)c2)cc1`, the half-maximal activity concentration (AC50) under setting [1] was 15.8 µM [rising, partial curve].

`C/C(=N/NC(=O)COc1cc(C)ccc1C(C)C)C(=O)O`: under setting [2], the half-maximal activity concentration (AC50) is 11.2 µM [falling, partial curve].

Take `Cc1cc(=O)n2nc(N3CCCC(C(=O)NCc4ccc5c(c4)OCO5)C3)sc2n1` (configuration not stated): under setting [1], the half-maximal activity concentration (AC50) is 16.4 µM [rising, partial curve, poor fit].

`O=C1c2ccccc2-c2onc3ccc(N4CCCC4)c1c23`: under setting [1], the AC50 was 10 µM [falling, partial curve, poor fit].

Consider `O=c1[nH]c(/C=C/c2ccc(Br)cc2)nc2ccccc12`, for which the AC50 under setting [1] was 4.47 µM [rising, partial curve, poor fit].

Regarding `COc1cccc(NC(=O)c2ccc3c(c2)CCCC3)c1`, the AC50 under setting [1] was 11.2 µM [falling, partial curve].

In the case of `Cc1ccccc1SCC(=O)NNC(=O)c1ccccc1O`, the AC50 under setting [1] is 17.8 µM [falling, single point].

As to `O=C1CCCC(O)=C1C=Nc1cccc(C(F)(F)F)c1`, the AC50 under setting [1] was 10 µM [rising, partial curve].

For `CC1SC2(NC1=O)C1CC3CC(C1)CC2C3` (configuration not stated), the half-maximal activity concentration (AC50) under setting [1] is 5.62 µM [rising, partial curve, poor fit].

For `CC(=O)Nc1ccc(S(=O)(=O)Nc2nc3ccccc3nc2Nc2ccc3ccccc3c2)cc1`, the AC50 under setting [1] was 29.1 µM [falling, single point].

`O=C1c2cccc3cccc(c23)C(=O)N1c1cccnc1`: the half-maximal activity concentration (AC50) under setting [1] is 14.1 µM [rising, single point].

Regarding `CC(=O)OCC12COC3c4ccccc4OC(C)(CC1C)C3C2C` (configuration not stated), the AC50 under setting [1] was 1.12 µM [falling, single point].

As for `CCN1C(=O)c2ccc(C(=O)NCc3ccccc3)cc2C1=O`, under setting [1], the AC50 is 29.1 µM [falling, single point].

Turning to `CC(=O)Nc1ccc(NC(=O)CSc2nc3c([nH]c4ccccc43)c(=O)n2-c2ccccc2F)cc1`, the AC50 under setting [1] was 22.4 µM [falling, single point].

In the case of `O=C(N=c1nc2ccccn2s1)c1ccccc1`, under setting [1], the AC50 is 2.24 µM [falling, full curve, poor fit].

In the case of `Cc1ccc(C(=O)NNC(=O)CCCN2C(=O)/C(=C/c3ccccc3Cl)SC2=S)cc1`, the AC50 under setting [1] is 2.31 µM [falling, full curve].

In the case of `CC1(C)CC(=O)C2=C(C1)c1c(ccc3ccccc13)NC2c1ccc(C(=O)O)cc1` (configuration not stated), the half-maximal activity concentration (AC50) under setting [1] is 11.2 µM [falling, partial curve].

The record behind these values is PubChem BioAssay AID493014 (National Center for Advancing Translational Sciences (NCATS), 2011).
